Measured values from the supplement of paper PMC6078165.
Values are relative to the signal before dosing, not to a vehicle control; the signal also falls without drug.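 Labels refer to human fibroblasts, largely primary: uterine (C12385, HUF), lung (H6013), bone (Hs27A), adrenal (HADF), skin (WS1), plus mammary HMF and breast cancer-associated Hs343T. Cancer lines are basal-like or mesenchymal-like triple-negative breast cancer. The paper counts as hits responses shifting over 3x the replicate standard deviation. The tissue of the other fibroblasts is not given here.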

System: MDAMB231
Assay: relative JC-1 red fluorescence (viability) vs pre-drug, coculture with fibroblast (fraction); higher = more viable cancer cells
Conditions: 10 µM
Description: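 JC-1 labelled TNBC cells cocultured 1:1 (1,500 cells each) with CellTrace Violet stained primary or stromal fibroblasts in 384-well plates in FluoroBrite medium, treated with one of 42 anticancer drugs at 0.1, 1, 10 or 100 uM. JC-1 red fluorescence (mitochondrial integrity in cancer cells only) was read by plate reader every 8 h for 72 h. Values are normalised to each well's pre-drug value. The stock of one drug was tenfold lower, so its dose labels may be too high.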

O=NN(CCCl)C(=O)NC1CCCCC1 [Lomustine]
relative JC-1 red fluorescence
Conditions | 8 h | 16 h | 24 h | 32 h | 40 h | 48 h | 56 h | 64 h | 72 h
coculture fibroblast: C12385 | 0.745 | 0.6956 | 0.661 | 0.602 | 0.54 | 0.523 | 0.493 | 0.503 | 0.49
coculture fibroblast: H6013 | 0.908 | 0.893 | 0.877 | 0.873 | 0.839 | 0.826 | 0.813 | 0.794 | 0.762
coculture fibroblast: H6019 | 0.7944 | 0.711 | 0.686 | 0.623 | 0.575 | 0.556 | 0.515 | 0.493 | 0.461
coculture fibroblast: H6076 | 0.852 | 0.782 | 0.742 | 0.719 | 0.685 | 0.654 | 0.6366 | 0.6315 | 0.6363
coculture fibroblast: H6231 | 0.883 | 0.793 | 0.739 | 0.698 | 0.658 | 0.633 | 0.595 | 0.583 | 0.57
coculture fibroblast: HADF | 0.8702 | 0.826 | 0.785 | 0.7483 | 0.701 | 0.6507 | 0.628 | 0.605 | 0.56
coculture fibroblast: HCFa | 0.9051 | 0.86214 | 0.823 | 0.7758 | 0.7184 | 0.6664 | 0.623 | 0.582 | 0.527
coculture fibroblast: HCPF | 0.836 | 0.774 | 0.747 | 0.731 | 0.701 | 0.669 | 0.642 | 0.62 | 0.608
coculture fibroblast: HHSteC | 0.9173 | 0.9063 | 0.8741 | 0.831 | 0.807 | 0.784 | 0.741 | 0.724 | 0.68
coculture fibroblast: HMF | 0.846 | 0.783 | 0.736 | 0.703 | 0.664 | 0.623 | 0.589 | 0.573 | 0.563
coculture fibroblast: HPFa | 0.827 | 0.804 | 0.776 | 0.861 | 0.838 | 0.773 | 0.714 | 0.665 | 0.597
coculture fibroblast: HUF | 0.842 | 0.748 | 0.777 | 0.655 | 0.597 | 0.579 | 0.5416 | 0.558 | 0.558
coculture fibroblast: Hs5 | 0.867 | 0.794 | 0.755 | 0.708 | 0.673 | 0.627 | 0.588 | 0.563 | 0.547
coculture fibroblast: Hs27A | 0.886 | 0.849 | 0.8193 | 0.795 | 0.742 | 0.683 | 0.676 | 0.6535 | 0.6028
coculture fibroblast: Hs343T | 0.848 | 0.7493 | 0.697 | 0.658 | 0.604 | 0.565 | 0.517 | 0.497 | 0.478
coculture fibroblast: WS1 | 0.757 | 0.713 | 0.656 | 0.605 | 0.555 | 0.527 | 0.479 | 0.474 | 0.457
